Laboratory results: PubChem BioAssay AID1259308 (NCATS, 2017)

Assay: 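Genes whose loss raises luciferase production in HEK293 cells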 (primary screen)
Cells: human HEK293 embryonic kidney cells stably expressing firefly luciferase (HEK-CMV-Luc2-Hygro)
Knock-down reagent: single siRNA against human genes, 0.8 pmol siRNA per well
Time to read-out: 72 h
Detection: 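Reporter luminescence and viable-cell signal on separate replicate plates, given as percent of non-targeting control and median/MAD z-scores, plus per-cell luciferase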
Reading the numbers: total luciferase, z-score: higher = more reporter protein produced
Rule for the call: 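An siRNA counts as active if its total luciferase robust z-score exceeds 3; genes with two or more such siRNAs out of three were retested with fresh siRNAs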
Calls: active = raised luciferase; inactive = no rise
This is one part, drawn at random, of about 59,000 reagents tested. Over the whole deposit, about 1,510 (2.6%) got an active call. 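Calls use total luciferase alone and ignore viability, so some active siRNAs may act by altering cell number.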 Reagents against one gene are numbered here. Further read-outs or replicates are left out here.

gene symbol | reagent | total luciferase, z-score | Call
TRIM42 | 1 | -0.415 | inactive
TRIM42 | 2 | -0.681 | inactive
TRIM42 | 3 | 0.408 | inactive
SOX21 | 1 | -1.05 | inactive
SOX21 | 2 | -0.831 | inactive
SOX21 | 3 | 0.96 | inactive
FAM131C | 1 | -0.646 | inactive
FAM131C | 2 | 0.205 | inactive
FAM131C | 3 | 1.02 | inactive

Reformatted: 2 of the entries above
FAM131C #2 — total luciferase, z-score: 0.205; Call: inactive
FAM131C #3 — total luciferase, z-score: 1.02; Call: inactive

The results go on.
gene symbol | reagent | total luciferase, z-score | Call
STOML1 | 1 | 0.946 | inactive
STOML1 | 2 | -0.944 | inactive
STOML1 | 3 | 0.297 | inactive
CFAP97D1 | 1 | 0.278 | inactive
CFAP97D1 | 2 | -2.14 | inactive
CFAP97D1 | 3 | 0.051 | inactive
TMSB4Y | 1 | -1.27 | inactive
TMSB4Y | 2 | 2.29 | inactive
TMSB4Y | 3 | 1.33 | inactive
NMUR1 | 1 | -1.13 | inactive
NMUR1 | 2 | -1.8 | inactive
NMUR1 | 3 | -0.0531 | inactive
LMAN1L | 1 | -0.00566 | inactive
LMAN1L | 2 | -0.0478 | inactive
LMAN1L | 3 | -0.931 | inactive
